# Out of some 31,000 sequences screened, about 1,400 (4.5%) were called active.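 Rule for the calls: active = median seed-adjusted z-score above 1 or below -1; inactive = the rest.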 This is one part of the list.
# Assay: Novel Modifiers of Survival Motor Neuron (SMN) Protein: Gene Identification via Genome-wide siRNA Screen;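 note: luminescence tracks full-length SMN protein made from the SMN2 reporter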
# Details: HEK293T SMN2-luciferase reporter, siRNA knockdown, 72 h; actives lie on both sides
# Summary of the method: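 siRNA screen, 10418 genes ×3 siRNAs; 1 pmol/well, lipid reverse transfection into HEK293T SMN2-luc reporter line. 72 h, 37 °C, 5% CO2; ONE-Glo readout. Data: neg-ctrl normalized, log10, MAD; hit = MAD >1.0 or < -1.0.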
row,Sequence,median seed-adjusted z-score
1,AGAAAUCUUUGAUCCCACATT against E2F4,inactive: -0.395
2,CCUCUGUGGUCAGACCAUUTT against ATP5O,inactive: -0.324
3,GAACUGAAGGCGCUCCCUATT against HES3,inactive: 0.284
4,GAAUUAUGUUUAGCACCUUTT against SLC25A43,inactive: 0
5,CAAAGAGCCUUGAGGUAUUTT against RPA4,inactive: 0.132
6,GGAAGAAUUUCAGUCAGAATT against ZNF436,inactive: 0.00767
7,GCACUGCGACUGUACUCUATT against LRRC3B,inactive: 0
8,ACACUGAGCUUAUGUUUUATT against FOXD4L4,inactive: -0.0372
9,CCAUCAUCAGCGACAUGAATT against MTSS1,inactive: 0.175
10,AUCUGGACGUGGUCCGCAATT against RBM42,inactive: 0
11,CGAGAAUCCACCCAUCCUATT against NPY,inactive: -0.0606
12,GGAUCGGAAUCUAUUAAGATT against UBR1,inactive: -0.775
13,CCAUGGAGCAUUCUGCAAATT against OXCT1,inactive: 0.133
14,CACAGUGUAUAUUCCCUAUTT against SENP1,inactive: 0.625
15,GGAUAUGCCCUUGACUAUATT against HPRT1,inactive: -0.0463
16,GGAUCUUCACAUCCGAGAATT against KIF27,inactive: 0.412
17,CCUGAUUGAUUUAGAAUCATT against EPS8,inactive: 0
18,GCAUCUAAAGAGCUACAGATT against ZNF584,inactive: 0.172
19,CCCUCAUCAUUGCCGUUGATT against SLC1A7,inactive: -0.781
20,GGUCAGCAGCUCUAAGCAATT against PHF19,inactive: -0.195
21,UGAAAGGACUGGAGUCCAATT against OLFM1,inactive: -0.103
22,GAAUCGCAUUUAUUAGUCATT against APPL1,inactive: 0

row,Sequence,median seed-adjusted z-score
1,CGCAAACUCUGAAUCAACATT against MFN1,inactive: 0.21
2,CAAUGUUCAAAGUACUCAATT against DCK,inactive: 0.123
3,AACUGUACAUUGAAGCAGATT against CSTF3,inactive: 0.0879
4,GGAGUGAAGUGCAAGCAUUTT against KSR1,inactive: 0.0873
5,CGGAGGGUAUUAUAGAUAUTT against APIP,inactive: -0.0945
6,GAAACUGUUUGGUAAACGATT against BTK,inactive: -0.0648
7,CAGUGACACUAGUCUGCAATT against SIGLEC1,inactive: -0.153
8,CCAAUACCUGGGAUCCAUUTT against RUNX1,inactive: -0.0264
9,AAAAGACCGUCAACCCUUATT against A2BP1,active: 1.17
10,GACUCGACCAAAAUCACUATT against TLX1,inactive: -0.815
11,GAGCCGGUCUUCAUCGUGATT against MEX3D,inactive: -0.337
12,GCACGUCAAUGGGUUUAAUTT against GNAL,inactive: -0.178
13,CCGACGAUAUUACUAAUGATT against HSP90AA1,inactive: -0.323
14,UCUGCAACCUUGAUGAACATT against MAP1S,inactive: 0.0941
15,GGACAUCUGAGGAUACUGUTT against SHROOM2,inactive: 0.11
16,GGACUUCGUGCUAUCAAAATT against CCT6B,inactive: 0
17,CAAGGAAUCUUUAAGCAGATT against NKX2-1,inactive: 0.185
18,CUGCUACAGUGAGACCGAATT against CNKSR1,inactive: 0.217
19,CGAUUACCCUGGUUGCACATT against KLF5,inactive: -0.338
20,GGAUACAAAUGACCGAUUUTT against MTHFD1L,inactive: -0.0577
21,AGAAGGACAUUGCGGCUCATT against DYNLL1,inactive: 0
22,CGUGUCAAAUAUUGGAUUATT against KLB,inactive: 0.221

row,Sequence,median seed-adjusted z-score
1,CCCUCUUCGCUGUGAAUGATT against RHCG,inactive: 0.375
2,CCCUCACUUUUCUAGAAUATT against HKDC1,inactive: -0.119
3,CAACAAUCCUAUAAUUCCATT against UBE2Q2,inactive: 0.146
4,GACUCUGGGUUAUACUGGUTT against FCGR1A,inactive: 0.869
5,GAUCAUAAGUCUAAAUAAATT against PTH,inactive: 0
6,GCACAUAUGUGAGAAGAUUTT against RNF25,inactive: -0.0826
7,GGCUUAGAGGGACGAAUAATT against SHROOM4,inactive: 0.825
8,UGAGAUUUGUCGAACCAAATT against CDK9,inactive: 0.901
9,UGAGCUGGGUGAAACACGATT against KLHL17,inactive: 0.139
10,GGAAGAACAUACUUCGUUUTT against ST8SIA4,inactive: -0.309
11,GGACGGCAUUCAGUGUUUUTT against IVD,inactive: -0.147
12,CACUGUUUCCUCAAGCUUATT against ZNF121,inactive: 0.0687
13,AAGUGUGCCUGAAUACUAUTT against KHDRBS2,inactive: -0.335
14,GGGUCUUCCUGGUUCUAUUTT against ECM2,inactive: 0.179
15,GAUAUUGAGCGGUUACAAATT against ATP7B,inactive: 0.0947
16,CAAAGGGCUAAGUUCUAAATT against TBC1D5,inactive: 0.38
17,CAGACGUGAUGACAAGAUUTT against S100A7,inactive: -0.253
18,CUACAAGCAUCGAUAGUAATT against EIF4G3,inactive: -0.0562
19,GAGUCAGAGUCAUUACUCATT against ZNF142,inactive: 0.111
20,ACAUUCAUCUCAACCUCGATT against RBM8A,inactive: 0
21,CAGGCACAUGAGUAACAAATT against ESR1,inactive: -0.408
22,GCAGCGAUAGUACUAAUGATT against KIT,inactive: -0.686

# Exported with tabs: entries from further up.
row	Sequence	median seed-adjusted z-score
4	GACUCUGGGUUAUACUGGUTT against FCGR1A	inactive: 0.869
12	CACUGUUUCCUCAAGCUUATT against ZNF121	inactive: 0.0687
14	GGGUCUUCCUGGUUCUAUUTT against ECM2	inactive: 0.179

# An excerpt of these results, bar-delimited:
row | Sequence | median seed-adjusted z-score
1 | AGAAAUCUUUGAUCCCACATT against E2F4 | inactive: -0.395
18 | CUACAAGCAUCGAUAGUAATT against EIF4G3 | inactive: -0.0562

# (list continues)

row,Sequence,median seed-adjusted z-score
1,GAUGAUCUGUGAGACCAAATT against BOC,inactive: -0.0192
2,AUGUACAAGUGUCAGCUAATT against VEGFC,inactive: -0.41
3,GCUACUUGAACUACCCUAATT against ARIH1,inactive: -0.443
4,GCUUUGAUGAGACCCGCUATT against HGFAC,inactive: 0.021
5,CGAUGGGUCUGUGCACAAATT against TGM2,inactive: 0.413
6,CCAUAGGUGUCAUCGCCUATT against CAMK1,inactive: 0.325
7,GGCCUUACGGGUGUAGUAATT against ZNF419,inactive: 0.0405
8,GCUCGCAACAAAGAAUUAATT against CTNND1,inactive: 0.38
9,GAGUAGAGUUUGACGAGUATT against RBP2,inactive: 0.0132
10,GGCAAAUAGUGUCAUCGAUTT against NPNT,inactive: 0.164
11,CGUCGUUACUCAGAACUUATT against ZFP30,inactive: 0.211
12,CUAUCCCACUAGACUCAAATT against SLC22A10,inactive: -0.0897
13,GCGAGUUUCUGGUCAACGATT against HOXC12,inactive: 0.788
14,GUCCAUAUGAGAAAGUAAATT against SPINK5L2,inactive: 0.482
15,GAAGAUCCGUGACGACGAATT against SURF6,inactive: 0.122
16,AGCCUUUAAUCGGUGCUCATT against ZNF682,inactive: -0.155
17,GGGUCACCGUCAAUGGGAATT against IFI30,inactive: 0.401
18,GUAUGGAGAUUAUCAACCATT against PTPN13,inactive: 0.0682
19,GCUUUGACCCUCUCCUAUATT against CYSLTR1,inactive: 0.364
20,CCUGCAAAGCUGAUGCUAATT against PVRL1,inactive: -0.362
21,CGACAUCAGAGAGAAUUAATT against RHOXF1,inactive: 0.341
22,CAAACAGGCUGGUGAAUUATT against SMA4,inactive: 0.291

row,Sequence,median seed-adjusted z-score
1,GGAAUAUCGUGGAGUGUAATT against ZNFX1,inactive: -0.368
2,GGAAAUCCAUCUACCGCUATT against SORL1,inactive: 0.357
3,GCACUGUCUUUGUAUCUGATT against SFXN2,inactive: 0.365
4,CCAUUGCCAUCUACCUGCUTT against SCO2,inactive: 0.848
5,GCCCUACUCUUGCUACGGATT against NKX2-6,inactive: -0.00448
6,GAUUCUCCGAAUGAAGUUATT against LIPH,inactive: 0.0437
7,AGUCGGAUCUGGACAAUGATT against CIB4,inactive: -0.638
8,GCAGAACUCUCAAGGUCCATT against CDH7,inactive: 0
9,GGAUUGAUUUGUCGGACUATT against CABIN1,inactive: -0.446
10,GCAUGUCGCCGAGAACCUUTT against GJC3,inactive: -0.137
11,CGACAAGCCCAAUGUUUAUTT against SSU72,active: -1.64
12,GGAGUAUGCUUGCAUGAAATT against NR6A1,inactive: -0.287
13,CCAUCAGUCUGGAUGUAAATT against SLC13A4,inactive: 0.446
14,AGACCAAACAGGUGACUGUTT against GPHB5,inactive: -0.533
15,CCAAGUUAUCUGUACAGCATT against SLC18A2,inactive: 0.777
16,GCAUUGUCAUUGCAAUUAATT against CLCA3,inactive: 0.424
17,GGAGGAACUCGAAUCAUUUTT against EIF4EBP2,inactive: 0.517
18,CAUCCAGGCGGAGAAAGGATT against MEOX1,inactive: 0.0171
19,CCAACUACCUGAACGAUGATT against U2AF2,active: 2.14
20,GCAACUCCAAUGUCAGUGATT against TAF9B,inactive: -0.0247
